# Melanoma cell counts after drug treatment

From a melanoma drug combination screen (doi:10.1371/journal.pone.0140310); values rounded.

Compounds and concentrations:
TCS401: O=C(O)C(=O)Nc1sc2c(c1C(=O)O)CCNC2 at 1.67 µM
stibogluconate: O=C(O)[C@@H]1[O][Sb](=[O])([O][Sb]2(=[O])[O][C@H]([C@H](O)CO)[C@H](O)[C@H](C(=O)O)[O]2)[O][C@H]([C@H](O)CO)[C@@H]1O (some centres undefined) at 2 µM
VX-702: NC(=O)c1ccc(N(C(N)=O)c2c(F)cccc2F)nc1-c1ccc(F)cc1F at 0.4 µM
NVP-TAE684: COc1cc(N2CCC(N3CCN(C)CC3)CC2)ccc1Nc1ncc(Cl)c(Nc2ccccc2S(=O)(=O)C(C)C)n1 at 0.08 µM
bexarotene: C=C(c1ccc(C(=O)O)cc1)c1cc2c(cc1C)C(C)(C)CCC2(C)C at 2 µM
PD173074: CCN(CC)CCCCNc1ncc2cc(-c3cc(OC)cc(OC)c3)c(NC(=O)NC(C)(C)C)nc2n1 at 0.1 µM
lestaurtinib: C[C@]12O[C@H](C[C@]1(O)CO)n1c3ccccc3c3c4c(c5c6ccccc6n2c5c31)CNC4=O at 0.004 µM
ruxolitinib: N#CC[C@H](C1CCCC1)n1cc(-c2ncnc3[nH]ccc23)cn1 at 1 µM
L-779450: Oc1cc(-c2nc(-c3ccccc3)[nH]c2-c2ccncc2)ccc1Cl at 0.2 µM
GSK0660: COC(=O)c1sccc1S(=O)(=O)Nc1ccc(Nc2ccccc2)cc1OC at 1 µM
fingolimod: CCCCCCCCc1ccc(CCC(N)(CO)CO)cc1 at 2 µM

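Human melanoma cells were exposed to a pair of drugs for 72 h in 1,536-well plates and read by automated microscopy after fixing and staining. The read-out is cell count (nuclei) in % of the DMSO control; lower values mean stronger growth inhibition or killing. Every drug was used at one fixed concentration, the lower of two screened (a fifth of the higher). The file gives one value for each pair and line, without errors, so small differences may be noise.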
This is part of the screen, not chosen by result.
A dash means that no value is listed here.

Pair	A2058	501mel	A101D	A375	C32
stibogluconate and L-779450	92.4	70.4	86.3	-	77.5
VX-702 and PD173074	113	120	115	-	91.0
NVP-TAE684 and TCS401	100	-	93.7	103	86.5
fingolimod and GSK0660	82.2	38.7	78.5	-	93.0
stibogluconate and PD173074	99.9	101	110	-	93.6
bexarotene and NVP-TAE684	71.5	108	90.6	-	114
lestaurtinib and GSK0660	97.8	84.4	82.0	-	87.8
PD173074 and ruxolitinib	91.6	-	132	-	98.1
PD173074 and fingolimod	93.9	76.1	102	-	91.5
GSK0660 and VX-702	98.2	101	107	-	110
stibogluconate and NVP-TAE684	78.0	96.2	98.7	-	94.1
PD173074 and lestaurtinib	103	84.2	82.5	-	103
L-779450 and lestaurtinib	104	51.2	78.1	-	81.7
GSK0660 and bexarotene	89.3	80.4	101	-	107
L-779450 and fingolimod	84.2	61.4	84.8	-	85.8
ruxolitinib and VX-702	96.8	-	113	104	93.9
GSK0660 and stibogluconate	102	102	117	-	97.7
TCS401 and ruxolitinib	90.9	91.7	112	-	106
TCS401 and stibogluconate	110	112	97.5	-	107
bexarotene and TCS401	111	101	95.6	-	114
PD173074 and L-779450	111	-	101	86.6	70.4
NVP-TAE684 and lestaurtinib	99.3	90.0	103	-	96.9
PD173074 and bexarotene	96.7	94.2	89.1	-	91.9
L-779450 and ruxolitinib	95.6	76.5	117	-	82.5
lestaurtinib and fingolimod	92.4	-	95.8	72.4	112
bexarotene and lestaurtinib	114	-	89.3	90.0	108
VX-702 and TCS401	82.8	81.2	94.3	-	97.7
NVP-TAE684 and fingolimod	73.1	-	89.2	-	87.9
TCS401 and lestaurtinib	116	94.5	88.2	-	102
fingolimod and TCS401	76.7	58.0	79.8	-	97.4
PD173074 and NVP-TAE684	91.3	-	98.4	106	104
L-779450 and VX-702	109	55.3	120	-	86.9
ruxolitinib and GSK0660	90.0	85.5	116	-	103
TCS401 and GSK0660	92.6	-	106	102	94.3

Once more, the final 3:

| Pair | A2058 | 501mel | A101D | A375 | C32 |
|---|---|---|---|---|---|
| L-779450 and VX-702 | 109 | 55.3 | 120 | - | 86.9 |
| ruxolitinib and GSK0660 | 90.0 | 85.5 | 116 | - | 103 |
| TCS401 and GSK0660 | 92.6 | - | 106 | 102 | 94.3 |